{"source": "PubChem BioAssay AID504444", "about": "(National Center for Advancing Translational Sciences (NCATS), 2011)", "note": "The campaign covered roughly 360,000 compounds. About 7,500 (2.1%) were called active. The inconclusive results got no clear call from the source; some entries with a clear call stand among them for comparison. Calls follow the shape of the dose curve; as a rule, active = well fitted inhibition curve with a large enough effect; inconclusive = small, poorly fitted or top-dose-only effect, or effect the other way; inactive = flat fitted curve, though single readings scatter. Where the call is inconclusive, the potency comes from a doubtful curve fit. % is scaled to controls: 0 for no effect and ±100 for the full control effect; potency is read from the fitted curve at half-maximal effect."}
{"test": "Nrf2 qHTS screen for inhibitors; also: nearly all actives have a fitted effect of over 60% in size", "details": "A549 ARE-Fluc reporter, luciferase luminescence, 18-24 h; activity change, negative = inhibition: at 46 µM (top of the series)", "procedure,_shortened": "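Nrf2 activity is the BugLite luminescence, read 15 min after reagent at room temperature, following CellTiter-Fluor cytotoxicity readout (30 min, 37C). Compound titrations were applied for 18-24 h to 5000 A549 ARE_Fluc cells/well in 5% FBS OPTI-MEM.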"}
{"smiles": "COc1cc(NS(=O)(=O)c2ccc(OC)c(C)c2C)c(OC)cc1Cl", "Potency": "active: 20.6 µM"}
{"smiles": "Nc1nc(Cl)cc(N2CCCC2)n1", "Potency": "inconclusive: 0.116 µM [falling, full curve, poor fit]"}
{"smiles": "Cc1ccc(NC(=O)CNC(=O)c2ccc(OC(F)F)cc2)cc1S(=O)(=O)N1CCCCCC1", "Potency": "inconclusive: 23.1 µM [falling, single point]"}
{"smiles": "O=C(NCCOc1ccc(Cl)cc1)c1ccc2c(c1)OCCO2", "Potency": "inconclusive: 1.64 µM [activator, partial curve]"}
{"smiles": "COc1ccccc1NC(=O)c1ccc(S(=O)(=O)N2CCOCC2)cc1", "activity change, negative = inhibition": "inactive: -13.4%"}
{"smiles": "Cn1c2ccccc2c2cnn(CC(=O)Nc3ccccc3C(F)(F)F)c(=O)c21", "activity change, negative = inhibition": "inactive: 7.26%"}
{"smiles": "Cn1ncc2c(N3CCC(Cc4ccccc4)CC3)ncnc21", "Potency": "inconclusive: 29.1 µM [falling, single point]"}
{"smiles": "CNc1nc(-c2ccccc2)nc(-c2ccccc2)c1C#N", "Potency": "inconclusive: 23.1 µM [activator, single point]"}
{"smiles": "S=C(NCc1ccncc1)Nc1ccc(Cl)cc1Cl", "Potency": "inconclusive: 23.1 µM [falling, partial curve, poor fit]"}
{"smiles": "CCn1cc(S(=O)(=O)c2ccccc2)c(=O)c2cc(F)c(N3CCN(c4ccccc4)CC3)cc21", "Potency": "inconclusive: 20.6 µM [falling, single point]"}
{"smiles": "COc1cc(/C=C2/SC(=O)NC2=O)ccc1OCc1ccccc1", "Potency": "inconclusive: 25.9 µM [falling, single point]"}
{"smiles": "CC(C)C[C@@H](CN1CCCC1CN1C(=S)NC[C@@H]1Cc1ccc(O)cc1)N1C[C@H](Cc2ccccc2)N(CC2CCCCC2)C1=S", "note": "(stereo not given in full)", "activity change, negative = inhibition": "inactive: -6.24%"}
{"smiles": "COc1cccc(/C(C)=N/Nc2ncc(Cl)cc2Cl)c1", "Potency": "inconclusive: 3.26 µM [activator, partial curve]"}
{"smiles": "COc1cc(NC(=O)c2oc3c(c2C)-c2nn(Cc4cccc(Cl)c4)cc2CC3)cc(OC)c1", "Potency": "inconclusive: 16.4 µM [activator, partial curve, poor fit]"}
{"smiles": "COc1ccc(OC)c(S(=O)(=O)N2CCCC2C(=O)NC(C)c2ccccc2)c1", "note": "(stereo not given)", "Potency": "inconclusive: 6.51 µM [falling, single point]"}
{"smiles": "CCOc1ccccc1/C=C/c1onc(C)c1S(=O)(=O)N1CCC(C(=O)N2CCCCCC2)CC1", "activity change, negative = inhibition": "inactive: -6.37%"}
{"smiles": "COc1ccc(C(=O)Nc2ccccc2C(=O)N/N=C/c2ccncc2)cc1OC", "Potency": "inconclusive: 20.6 µM [falling, single point]"}
{"smiles": "OCCC1CN(Cc2cnc(-c3ccccc3)s2)CCN1Cc1ccccc1", "note": "(stereo not given)", "Potency": "inconclusive: 18.4 µM [falling, single point]"}
{"smiles": "COc1ccc(CNC(=O)CCN2C(=O)c3ccccc3C2=O)cc1", "Potency": "inconclusive: 23.1 µM [falling, partial curve, poor fit]"}
{"smiles": "CN(C)Cc1cc(C(C)(C)C)c(O)c(C(C)(C)C)c1", "activity change, negative = inhibition": "inactive: -15.1%"}
{"smiles": "N#Cc1nc(-c2ccccc2F)oc1N1CCCCC1", "activity change, negative = inhibition": "inactive: 12.1%"}
{"smiles": "CN1CCN(c2ccc(S(=O)(=O)N3CCCCC3)cc2NC(=O)COc2cccc(Cl)c2)CC1", "Potency": "inconclusive: 13 µM [falling, single point]"}
{"smiles": "COC(=O)C(Cc1ccc(O)cc1)N1Cc2ccccc2C1=O", "note": "(stereo not given)", "Potency": "inconclusive: 5.17 µM [activator, full curve]"}
{"smiles": "COc1cc(NC(=O)COCc2cc(-c3ccc4c(c3)OCO4)on2)cc(OC)c1", "activity change, negative = inhibition": "inactive: -2.45%"}
{"smiles": "COc1ccc(CCNC(=O)c2nnc(Cc3c(F)cccc3Cl)o2)cc1OC", "Potency": "inconclusive: 29.1 µM [falling, partial curve, poor fit]"}
{"smiles": "O=c1ccc(/C=C/c2ccccc2)nn1Cc1ccccc1Cl", "activity change, negative = inhibition": "inactive: -10%"}
{"smiles": "COc1ccccc1CO/N=C/NC(=O)c1c(OC)ccnc1Oc1ccc(F)cc1", "Potency": "inconclusive: 3.66 µM [falling, partial curve]"}
{"smiles": "COc1ccc(NC(=O)CN2C(=O)COc3ccc(C)cc32)c(OC)c1", "Potency": "inconclusive: 29.1 µM [falling, single point]"}
{"smiles": "CCCN(CC(=O)Nc1ccccc1C)C(=O)C1CCN(c2ncnc3sc(C)c(C)c23)CC1", "Potency": "inconclusive: 29.1 µM [falling, single point]"}
{"smiles": "O=C(NCCN1CCCCC1)c1cc2ccccc2[nH]1", "activity change, negative = inhibition": "inactive: 9.08%"}
{"smiles": "CC1c2cc3c(cc2CCN1C(=O)c1ccc(C(F)(F)F)cc1)OCCCO3", "note": "(stereo not given)", "Potency": "inconclusive: 18.4 µM [falling, single point]"}
{"smiles": "Cc1cc2c(C)nc(-c3ccccc3)nc2o1", "Potency": "inconclusive: 8.2 µM [activator, partial curve]"}
{"smiles": "Nn1c(COc2ccccc2F)nnc1SCC(=O)NC1CCS(=O)(=O)C1", "note": "(stereo not given)", "activity change, negative = inhibition": "inactive: -0.242%"}
{"smiles": "COc1ccc(CC(=O)N2CCN(c3ccccn3)CC2)cc1OC", "activity change, negative = inhibition": "inactive: -5.06%"}
{"smiles": "COC(=O)c1ccccc1S(=O)(=O)N1CCC(C(=O)NCc2ccco2)CC1", "activity change, negative = inhibition": "inactive: 3.88%"}
{"smiles": "CC(=O)NC(c1ccccc1)c1cc(Cl)c2cccnc2c1O", "note": "(stereo not given)", "Potency": "active: 18.4 µM"}
{"smiles": "CCOC(=O)C1=NNC(=O)C1", "Potency": "inconclusive: 32.6 µM [activator, partial curve, poor fit]"}
{"smiles": "CCNS(=O)(=O)c1ccc(NC(=O)Nc2cccc(C(F)(F)F)c2)cc1", "Potency": "inconclusive: 25.9 µM [falling, partial curve, poor fit]"}
{"smiles": "CC(Sc1ccc(S(=O)(=O)N2CCN(C)CC2)cn1)C(=O)Nc1cccc(Cl)c1Cl", "note": "(stereo not given)", "Potency": "inconclusive: 14.6 µM [falling, partial curve, poor fit]"}
{"smiles": "Cc1cc(C)c2c(N)c(C(=O)NN)sc2n1", "activity change, negative = inhibition": "inactive: 1.53%"}
{"smiles": "COc1ccc(Br)cc1CN(C)C(=O)c1ccc2c(c1)NC(=O)C(C)S2", "note": "(stereo not given)", "activity change, negative = inhibition": "inactive: 4.05%"}
{"smiles": "Cc1nn(-c2ccc(N3CCCC3)nn2)c(C)c1CCC(=O)Nc1ccc(F)c(Cl)c1", "Potency": "inconclusive: 29.1 µM [falling, single point]"}
{"smiles": "CC(=O)c1ccc(OCCNS(=O)(=O)c2ccc(-n3cnnn3)cc2)cc1", "Potency": "inconclusive: 29.1 µM [falling, single point]"}
{"smiles": "Cc1ccccc1C(=O)NNC(=O)Cc1ccccc1", "Potency": "inconclusive: 0.731 µM [falling, partial curve, poor fit]"}
{"smiles": "COCCCNC(=S)N1CCN(c2nc3ccccc3s2)CC1", "Potency": "inconclusive: 18.4 µM [falling, single point]"}
{"smiles": "CCC(=O)Nc1ccc2c(c1)C(=O)N(C1CCCCC1)C2=O", "activity change, negative = inhibition": "inactive: -0.854%"}
{"smiles": "CCN(CC)C(=O)c1cc2cc(Br)ccc2oc1=O", "activity change, negative = inhibition": "inactive: 10.7%"}
{"smiles": "COc1ccc(/C(N)=N/OC(=O)c2cccs2)cc1OC", "Potency": "inconclusive: 16.4 µM [activator, partial curve]"}
{"smiles": "COc1ccc(NC(=O)Cn2ncc3c2-c2ccccc2OC3)cc1Cl", "Potency": "inconclusive: 9.2 µM [falling, partial curve]"}
{"smiles": "Cc1cc(NC(=O)c2ccoc2C)ccc1Br", "Potency": "inconclusive: 1.84 µM [activator, partial curve]"}
{"smiles": "Cc1cccc(NC(=O)c2sc3nc(N4CCOCC4)c4c(c3c2N)CC(C)(C)OC4)c1", "activity change, negative = inhibition": "inactive: 21.1%"}
{"smiles": "COc1ccccc1C(=O)Nc1ccc(OCc2cc(=O)n3ccsc3n2)cc1", "Potency": "inconclusive: 0.164 µM [falling, full curve, poor fit]"}
{"smiles": "COc1ccc2c(c1OC)OCC2C", "note": "(stereo not given)", "Potency": "inconclusive: 29.1 µM [falling, single point]"}
{"smiles": "C=CCNC(=O)c1n[nH]c2c1CC(C(C)(C)CC)CC2", "note": "(stereo not given)", "Potency": "inconclusive: 18.4 µM [falling, partial curve, poor fit]"}
{"smiles": "COc1ccc(-c2noc(Cc3cccs3)n2)cc1", "Potency": "inconclusive: 10.3 µM [activator, partial curve]"}
{"smiles": "Cc1ccc(C(=O)NNc2ncnc3c2cnn3C)cc1", "activity change, negative = inhibition": "inactive: 9.72%"}
{"smiles": "CCN(CCCNC(=O)c1cc2c(Cl)nc3ccccc3c2s1)Cc1ccccc1", "Potency": "inconclusive: 4.11 µM [activator, partial curve, poor fit]"}
{"smiles": "CC(=O)N1c2ccc(S(=O)(=O)NCCC(=O)Nc3ccc(Br)c(C)c3)cc2CC1C", "note": "(stereo not given)", "Potency": "inconclusive: 29.1 µM [falling, single point]"}
{"smiles": "O=C(O)CC1=C(O)C(=O)N(c2ccccc2)C1c1ccccc1", "note": "(stereo not given)", "activity change, negative = inhibition": "inactive: -1.5%"}
{"smiles": "CCN1C(=O)/C(=C/C=C2\\C=CN(CC)c3ccccc32)SC1=S", "activity change, negative = inhibition": "inactive: 6.45%"}
{"smiles": "CCCN(C(=O)CCc1nc(-c2ccc(OC)cc2)no1)c1ccccc1F", "Potency": "inconclusive: 23.1 µM [falling, single point]"}
{"smiles": "C#CCN(Cc1ccco1)C(=O)c1ccc(OC2CCN(Cc3ccccn3)CC2)cc1", "Potency": "inconclusive: 32.6 µM [falling, partial curve, poor fit]"}
{"smiles": "COc1ccc(C(=O)Nn2c(SCC(=O)c3ccccc3)nc3ccccc3c2=O)cc1", "Potency": "inconclusive: 1.64 µM [activator, full curve]"}
{"smiles": "O=C(c1ccco1)n1nc(-c2ccccc2)nc1SCc1ccccc1", "Potency": "inconclusive: 0.0065 µM [falling, full curve, poor fit]"}
{"smiles": "NS(=O)(=O)c1ccc(N/N=C/c2ccc[nH]2)c([N+](=O)[O-])c1", "Potency": "active: 8.2 µM"}
{"smiles": "COc1cc(OC)c2c(-c3cccc(-c4ccc(OC)c(F)c4)c3)cc(=O)oc2c1", "Potency": "inconclusive: 0.82 µM [activator, partial curve, poor fit]"}
{"smiles": "Cc1ccc(F)c(Oc2cc(NN3CCCCC3)c([N+](=O)[O-])cc2[N+](=O)[O-])c1", "Potency": "inconclusive: 23.1 µM [falling, single point]"}
{"smiles": "CCN(CC)S(=O)(=O)c1cc(C)ccc1NC(=S)Nc1cccnc1", "Potency": "inconclusive: 29.1 µM [falling, single point]"}
{"smiles": "CCn1c(SCC(=O)Nc2cccc(C)c2)nc2nc3c(cc2c1=O)COC(C)(C)C3", "Potency": "inconclusive: 20.6 µM [falling, single point]"}
{"smiles": "CCCCCSc1nc2c(cnn2-c2ccccc2)c(=O)[nH]1", "Potency": "inconclusive: 20.6 µM [falling, single point]"}
